Assay results taken from paper PMC11387586 (Pharmacology Research & Perspectives, 2024).
“And” between values parts separate entries of the source, which are not always exact repeats. Equal entries are not always repeated. This continues a long series; more values of the same kind are listed elsewhere.

Columns and labels:
[1] = Urinary excretion of aficamten, M1a and M1b; format: in vivo, human; conditions: geometric mean; aficamten as unchanged drug over 456 h post‐dose
Method in brief: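 Urine was collected predose, at 0–4, 4–8, 8–12 and 12–24 h, then every 24 h until discharge. Isopropyl alcohol equal to 20% of void mass was added, pools were kept at 4°C, and aliquots were frozen at −20°C. Urinary excretion of parent and M1a/M1b (fe0-tlast) and renal clearance came from non-compartmental analysis, given as geometric means.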

[2] = Mass balance: radioactive dose recovered in urine and feces; format: in vivo, human
Method in brief: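 8 healthy men each got one [14C]-labelled 20 mg oral capsule (about 100 μCi) with 240 mL water after a fast of at least 10 h. Urine was collected at 0–4, 4–8, 8–12 and 12–24 h, then every 24 h; feces every 24 h, homogenised in about 20:80 acetonitrile:water. Urine was counted directly by LSC; fecal homogenate was combusted first. Samples ran in duplicate. Collection continued until discharge criteria were met.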

Q: For `CCc1nc(-c2ccc3c(c2)CC[C@H]3NC(=O)c2cnn(C)c2)no1` [Aficamten], which “percentage of the dose administered recovered in the urine (fe0‐tlast)” value [1] is on record?
A: 0.554%

Q: What about the “Cumulative percent of radioactive dose recovered” value (from here on “Cumulative percent”) ([2]; feces, 0–24 h, individual subject) of the same molecule?
A: 0.00% (2×) and 0.0529% and 2.14% and 0.0658% and 0.0363% and 45.5% and 0.0642%

Q: And the “Cumulative percent” value ([2]; feces, 0–24 h, mean)?
A: 5.98%

Q: What about the “Cumulative percent” value ([2]; feces, 0–48 h, individual subject) of the same molecule?
A: 6.81% and 3.69% and 1.09% and 3.45% and 0.0658% and 13.0% and 47.4% and 31.2%

Q: What about the “Cumulative percent” value ([2]; feces, 0–48 h, mean) of the same molecule?
A: 13.3%

Q: What about the “Cumulative percent” value ([2]; feces, 0–72 h, individual subject) of the same molecule?
A: 14.2% and 32.5% and 16.3% and 30.6% and 50.5% and 24.9% and 51.4% and 42.0%

Q: What about the “Cumulative percent” value ([2]; feces, 0–72 h, mean) of the same molecule?
A: 32.8%

Q: What about the “Cumulative percent” value ([2]; feces, 0–96 h, individual subject) of the same molecule?
A: 22.4% and 32.5% and 18.9% and 45.9% and 54.2% and 39.9% and 54.1% and 46.6%

Q: And the “Cumulative percent” value ([2]; feces, 0–96 h, mean)?
A: 39.3%

Q: And the “Cumulative percent” value ([2]; feces, 0–120 h, individual subject)?
A: 22.4% and 38.5% and 24.3% and 49.4% and 54.2% and 47.1% and 55.9% and 49.9%

Q: And the “Cumulative percent” value ([2]; feces, 0–120 h, mean)?
A: 42.7%

Q: And the “Cumulative percent” value ([2]; feces, 0–144 h, individual subject)?
A: 33.8% and 38.5% and 26.9% and 52.6% and 59.1% and 50.9% and 55.9% and 52.2%

Q: What about the “Cumulative percent” value ([2]; feces, 0–144 h, mean) of the same molecule?
A: 46.2%

Q: And the “Cumulative percent” value ([2]; feces, 0–168 h, individual subject)?
A: 33.8% and 38.5% and 33.6% and 55.5% and 61.6% and 53.1% and 59.4% and 54.3%

Q: And the “Cumulative percent” value ([2]; feces, 0–168 h, mean)?
A: 48.7%

Q: What about the “Cumulative percent” value ([2]; feces, 0–192 h, individual subject) of the same molecule?
A: 36.5% and 42.7% and 33.6% and 57.9% and 61.6% and 55.2% and 60.3% and 56.4%

Q: What about the “Cumulative percent” value ([2]; feces, 0–192 h, mean) of the same molecule?
A: 50.5%

Q: And the “Cumulative percent” value ([2]; feces, 0–216 h, individual subject)?
A: 37.5% and 44.8% and 33.6% and 59.3% and 63.0% and 56.5% and 61.0% and 57.4%

Q: And the “Cumulative percent” value ([2]; feces, 0–216 h, mean)?
A: 51.6%

Q: What about the “Cumulative percent” value ([2]; feces, 0–240 h, individual subject) of the same molecule?
A: 38.2% and 46.5% and 34.1% and 59.3% and 63.7% and 56.5% and 61.7% and 58.9%

Q: And the “Cumulative percent” value ([2]; feces, 0–240 h, mean)?
A: 52.4%

Q: What about the “Cumulative percent” value ([2]; feces, 0–264 h, individual subject) of the same molecule?
A: 39.2% and 48.3% and 34.1% and 59.5% and 65.1% and 58.9% and 62.4% and 60.2%

Q: And the “Cumulative percent” value ([2]; feces, 0–264 h, mean)?
A: 53.5%

Q: What about the “Cumulative percent” value ([2]; feces, 0–288 h, individual subject) of the same molecule?
A: 40.0% and 48.3% and 35.1% and 60.8% and 65.1% and 58.9% and 62.8% and 60.7%

Q: And the “Cumulative percent” value ([2]; feces, 0–288 h, mean)?
A: 54.0%

Q: And the “Cumulative percent” value ([2]; feces, 0–312 h, individual subject)?
A: 41.3% and 49.8% and 36.2% and 61.6% and 65.9% and 59.2% and 63.2% and 61.5%

Q: What about the “Cumulative percent” value ([2]; feces, 0–312 h, mean) of the same molecule?
A: 54.8%

Q: What about the “Cumulative percent” value ([2]; feces, 0–336 h, individual subject) of the same molecule?
A: 42.8% and 50.6% and 37.2% and 62.2% and 66.4% and 59.2% and 63.5% and 62.0%

Q: What about the “Cumulative percent” value ([2]; feces, 0–336 h, mean) of the same molecule?
A: 55.5%

Q: And the “Cumulative percent” value ([2]; feces, 0–360 h, individual subject)?
A: 42.8% and 51.4% and 37.9% and 62.7% (2×) and 66.4% and 60.0% and 63.8%

Q: What about the “Cumulative percent” value ([2]; feces, 0–360 h, mean) of the same molecule?
A: 56.0%

Q: And the “Cumulative percent” value ([2]; feces, 0–384 h, individual subject)?
A: 42.8% and 52.3% and 38.5% and 63.1% (2×) and 66.4% and 60.4% and 63.8%

Q: What about the “Cumulative percent” value ([2]; feces, 0–384 h, mean) of the same molecule?
A: 56.3%

Q: And the “Cumulative percent” value ([2]; feces, 0–408 h, individual subject)?
A: 42.8% and 52.6% and 38.9% and 63.1% (2×) and 66.5% and 60.4% and 63.8%

Q: What about the “Cumulative percent” value ([2]; feces, 0–408 h, mean) of the same molecule?
A: 56.4%

Q: And the “Cumulative percent” value ([2]; feces, 0–432 h, individual subject)?
A: 44.0% and 53.0% and 39.4% and 63.4% and 66.7% and 60.4% and 64.1% and 63.6%

Q: And the “Cumulative percent” value ([2]; feces, 0–432 h, mean)?
A: 56.8%

Q: And the “Cumulative percent” value ([2]; feces, 0–456 h, individual subject)?
A: 44.3% and 53.0% and 39.9% and 63.6% and 66.9% and 60.9% and 64.2% and 63.8%

Q: And the “Cumulative percent” value ([2]; feces, 0–456 h, mean)?
A: 57.1%

Q: And the “Cumulative percent” value ([2]; feces, 0–480 h, individual subject)?
A: 45.3% and 53.9% and 40.3% and 63.6%

Q: And the “Cumulative percent” value ([2]; feces, 0–480 h, mean)?
A: 57.4%

Q: And the “Cumulative percent” value ([2]; feces, 0–504 h, individual subject)?
A: 45.3% and 53.9% and 40.9% and 63.7%

Q: What about the “Cumulative percent” value ([2]; feces, 0–504 h, mean) of the same molecule?
A: 57.5%

Q: What about the “Cumulative percent” value ([2]; feces, 0–528 h, individual subject) of the same molecule?
A: 45.5% and 54.3% and 40.9% and 63.8%

Q: And the “Cumulative percent” value ([2]; feces, 0–528 h, mean)?
A: 57.6%

Q: What about the “Cumulative percent” value ([2]; feces, 0–552 h, individual subject) of the same molecule?
A: 45.7% and 54.3% and 41.0% and 63.9%

Q: And the “Cumulative percent” value ([2]; feces, 0–552 h, mean)?
A: 57.6%

Q: What about the “Cumulative percent” value ([2]; feces, 0–576 h, individual subject) of the same molecule?
A: 45.7% and 54.3% and 41.2% and 64.0%

Q: And the “Cumulative percent” value ([2]; feces, 0–576 h, mean)?
A: 57.6%

Q: What about the “Cumulative percent” value ([2]; feces, 0–600 h, individual subject) of the same molecule?
A: 54.5% and 41.3% and 64.1%

Q: And the “Cumulative percent” value ([2]; feces, 0–600 h, mean)?
A: 57.7%

Q: What about the “Cumulative percent” value ([2]; urine, 0–4 h, individual subject) of the same molecule?
A: 0.652% and 0.103% and 0.417% and 0.577% and 0.394% and 0.619% and 0.384% and 0.369%

Q: And the “Cumulative percent” value ([2]; urine, 0–4 h, mean)?
A: 0.439%

Q: What about the “Cumulative percent” value ([2]; urine, 0–8 h, individual subject) of the same molecule?
A: 1.87% and 0.604% and 1.46% and 1.59% and 0.612% and 1.81% and 1.29% and 1.02%

Q: And the “Cumulative percent” value ([2]; urine, 0–8 h, mean)?
A: 1.28%

Q: And the “Cumulative percent” value ([2]; urine, 0–12 h, individual subject)?
A: 3.19% and 0.604% and 2.63% and 2.45% and 0.612% and 2.89% and 1.97% and 1.83%

Q: What about the “Cumulative percent” value ([2]; urine, 0–12 h, mean) of the same molecule?
A: 2.02%

Q: And the “Cumulative percent” value ([2]; urine, 0–24 h, individual subject)?
A: 6.66% and 2.20% and 4.65% and 4.20% and 2.00% and 5.88% and 4.89% and 3.95%

Q: And the “Cumulative percent” value ([2]; urine, 0–24 h, mean)?
A: 4.30%

Q: And the “Cumulative percent” value ([2]; urine, 0–48 h, individual subject)?
A: 13.4% and 5.36% and 7.73% and 7.03% and 5.78% and 10.7% and 10.4% and 8.07%

Q: What about the “Cumulative percent” value ([2]; urine, 0–48 h, mean) of the same molecule?
A: 8.55%

Q: And the “Cumulative percent” value ([2]; urine, 0–72 h, individual subject)?
A: 19.1% and 7.92% and 12.1% and 10.1% and 9.03% and 14.5% (2×) and 11.3%

Q: And the “Cumulative percent” value ([2]; urine, 0–72 h, mean)?
A: 12.3%

Q: What about the “Cumulative percent” value ([2]; urine, 0–336 h, individual subject) of the same molecule?
A: 30.5% and 32.3% and 28.4%

Q: What about the “Cumulative percent” value ([2]; urine, 0–360 h, individual subject) of the same molecule?
A: 46.5% and 22.8% and 31.9% and 23.6% and 23.0% and 31.0% and 32.7% and 28.7%

Q: And the “Cumulative percent” value ([2]; urine, 0–360 h, mean)?
A: 30.0%

Q: What about the “Cumulative percent” value ([2]; urine, 0–384 h, individual subject) of the same molecule?
A: 47.1% and 23.3% and 32.6% and 24.0% and 23.2% and 31.5% and 33.1% and 29.1%

Q: And the “Cumulative percent” value ([2]; urine, 0–384 h, mean)?
A: 30.5%

Q: And the “Cumulative percent” value ([2]; urine, 0–408 h, individual subject)?
A: 47.5% and 23.9% and 33.0% and 24.2% and 23.5% and 31.8% and 33.4% and 29.4%

Q: What about the “Cumulative percent” value ([2]; urine, 0–408 h, mean) of the same molecule?
A: 30.8%

Q: And the “Cumulative percent” value ([2]; urine, 0–432 h, individual subject)?
A: 47.9% and 24.5% and 33.4% and 24.4% and 23.7% and 32.1% and 33.7% and 29.7%

Q: And the “Cumulative percent” value ([2]; urine, 0–432 h, mean)?
A: 31.2%

Q: And the “Cumulative percent” value ([2]; urine, 0–456 h, individual subject)?
A: 48.3% and 24.7% and 33.7% and 24.6% and 23.9% and 32.3% and 33.9% and 29.9%

Q: What about the “Cumulative percent” value ([2]; urine, 0–456 h, mean) of the same molecule?
A: 31.4%

Q: What about the “Cumulative percent” value ([2]; urine, 0–480 h, individual subject) of the same molecule?
A: 48.5% and 25.1% and 34.1% and 24.8%

Q: And the “Cumulative percent” value ([2]; urine, 0–480 h, mean)?
A: 31.6%

Q: What about the “Cumulative percent” value ([2]; urine, 0–504 h, individual subject) of the same molecule?
A: 48.7% and 25.4% and 34.4% and 24.9%

Q: And the “Cumulative percent” value ([2]; urine, 0–504 h, mean)?
A: 31.7%

Q: What about the “Cumulative percent” value ([2]; urine, 0–528 h, individual subject) of the same molecule?
A: 48.9% and 25.6% and 34.6% and 25.0%

Q: What about the “Cumulative percent” value ([2]; urine, 0–528 h, mean) of the same molecule?
A: 31.8%

Q: What about the “Cumulative percent” value ([2]; urine, 0–552 h, individual subject) of the same molecule?
A: 49.1% and 25.8% and 34.8% and 25.1%

Q: And the “Cumulative percent” value ([2]; urine, 0–552 h, mean)?
A: 31.8%

Q: What about the “Cumulative percent” value ([2]; urine, 0–576 h, individual subject) of the same molecule?
A: 49.2% and 26.0% and 35.0% and 25.2%

Q: And the “Cumulative percent” value ([2]; urine, 0–576 h, mean)?
A: 31.9%

Q: What about the “Cumulative percent” value ([2]; urine, 0–600 h, individual subject) of the same molecule?
A: 26.3% and 35.1% and 25.3%

Q: And the “Cumulative percent” value ([2]; urine, 0–600 h, mean)?
A: 32.0%
